Primary screen of a compound library

Chains of the proteins cited; added tags and fusions are not shown.
UniProt E9BF75, entry or part of it: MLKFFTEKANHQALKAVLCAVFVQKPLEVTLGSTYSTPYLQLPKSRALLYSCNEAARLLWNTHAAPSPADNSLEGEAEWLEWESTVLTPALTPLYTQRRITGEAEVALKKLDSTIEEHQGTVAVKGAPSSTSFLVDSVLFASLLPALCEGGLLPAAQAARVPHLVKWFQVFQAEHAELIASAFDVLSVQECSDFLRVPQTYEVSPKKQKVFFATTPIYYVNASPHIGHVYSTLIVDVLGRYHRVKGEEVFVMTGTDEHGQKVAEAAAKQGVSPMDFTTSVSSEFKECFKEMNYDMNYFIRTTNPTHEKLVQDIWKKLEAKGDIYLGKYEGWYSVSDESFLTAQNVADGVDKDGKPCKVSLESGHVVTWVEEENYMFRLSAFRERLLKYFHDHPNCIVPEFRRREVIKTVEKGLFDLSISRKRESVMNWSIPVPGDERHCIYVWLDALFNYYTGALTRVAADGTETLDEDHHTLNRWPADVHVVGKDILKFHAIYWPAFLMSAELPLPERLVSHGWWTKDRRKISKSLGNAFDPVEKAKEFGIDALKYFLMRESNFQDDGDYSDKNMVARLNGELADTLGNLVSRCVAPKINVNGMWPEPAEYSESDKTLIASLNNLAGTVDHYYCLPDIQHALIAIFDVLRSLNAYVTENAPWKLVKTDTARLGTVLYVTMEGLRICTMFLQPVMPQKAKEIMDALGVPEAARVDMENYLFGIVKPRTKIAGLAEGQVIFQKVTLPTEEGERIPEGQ

Mtb heat-shock: 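Assay on Mycobacterium tuberculosis, filed only as a heat shock assay from Cornell; the read-out is not stated. The concentration is filed as 10 mM, unlikely as a test dose, so the dose is not known. The record gives no direction; compounds that gave an IC50 in retests scored well above the rest, so higher reads as stronger inhibition. Size under these conditions: about 69,000 compounds, about 930 of them at 50% or above in at least one test.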
Mtb growth Cornell: 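Whole-cell assay for inhibitors of Mycobacterium tuberculosis growth, labelled Cornell in the record; the read-out is not stated. The concentration is filed as 10 mM, unlikely as a test dose, so the dose is not known. The record gives no direction; compounds strong in two other growth screens of this library score well above the rest, so higher reads as stronger inhibition. Of about 53,000 compounds tested this way, about 900 (1.7%) reached 50% or more in at least one test.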
LdMetRS: 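Methionyl-tRNA synthetase (putative), Leishmania donovani (UniProt E9BF75). Primary screen of methionyl-tRNA synthetase; the read-out is not stated. The test concentration is not given. Values are per cent inhibition. Size under these conditions: about 68,000 compounds, about 24 of them at 50% or above in at least one test.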

Results are percentages, as filed. The record does not define 0% and 100%; most values in the screen are far below 50% and negative numbers occur (in some assays of this library far below -100). The compounds are a random part of those screened. A dash means the value is not listed here; it may have been measured.

| compound | Mtb heat-shock | Mtb growth Cornell | LdMetRS |
|---|---|---|---|
| `Cl.O=C(NCC1CCC2(CCNCC2)CO1)c1cnccn1` (stereo unspecified) | -23.78 | -6.745 | - |
| `NC[C@H]1CC[C@H](C(NC(=O)CC2CCCCC2)c2ccccn2)CC1` (stereo partly specified) | 7.36 | - | 10.59 |
| `CCC[C@@H]1CN(C(=O)c2ccccc2-c2ccccc2)C[C@H]1N(C)C` | -8.332 | -44.21 | 3.308 |
| `COc1nc(C)c(C(=O)N(C)Cc2nc(-c3ccccn3)no2)s1` | -18.98 | 2.655 | 8.78 |
| `O=C(c1ccc(NC2CC2)nc1)N1CCC(Nc2cccnn2)CC1` | 13.79 | - | 20.44 |
| `CC1=NN(CC(=O)N2CC[C@@H]3[C@@H](CCC(=O)N3CC(C)C)C2)CC1` | - | - | 17.5 |
| `c1ccc(-c2cc(CN3CCC(c4ccn[nH]4)CC3)on2)cc1` | -4.136 | - | 19.2 |
| `CCN1CCN(C(=O)c2ccc3c(c2)CCCN3)[C@H]2CS(=O)(=O)C[C@H]21` | - | - | 14.44 |
| `O=C(Nc1ccc(F)cc1)C1CNCCN1C(=O)CSc1ccncc1` (stereo unspecified) | -3.261 | - | 1.718 |
| `O=C(c1ccncc1)N1CCCC1C1CCN(Cc2ccccc2)CC1` (stereo unspecified) | -27.13 | 0.8927 | 8.934 |
| `Cc1cnc(CN(C)C2CCN(CCCc3cnn(C)c3)C2)o1` (stereo unspecified) | -3.483 | -4.643 | 11.85 |
| `CCn1ncc(CN2CCCC(n3c(=O)oc4ccccc43)C2)c1C` (stereo unspecified) | - | - | 11.49 |
| `c1nc2c(c(-c3ccsc3)n1)CCN(Cc1ccoc1)CC2` | - | - | 0 |
| `CN1CCCN(c2nc(C3CC3)ns2)CC1` | -34.39 | 1.7 | 15.72 |
| `COCC1CCN(C(=O)c2cccc(S(=O)(=O)NCC3(C)COC3)c2)C1` (stereo unspecified) | -13.86 | 14.69 | 16.73 |
| `Cc1ccc(CN(C)C)cc1NC(=O)C1CC=CC1` | -4.021 | 11.55 | 4.01 |
| `Cc1nc(C)c(CC(=O)N2CCC(c3ccn4nccc4n3)CC2)s1` | -0.4125 | 48.29 | 21.07 |
| `CN(Cc1cccs1)S(=O)(=O)c1ccc(C(F)(F)F)nc1` | 41.94 | 9.127 | 12.11 |
| `CN(C)c1ncccc1CNC(=O)NCCN(C)C1CCCC1` | -15.14 | - | 8.282 |
| `CC(=O)N1N=C(c2ccccc2)OC1C(=O)NCCc1ccc(Cl)cc1` (stereo unspecified) | 7.805 | -6.83 | 1.389 |
| `CC(C)NC(=O)C1CN(C(=O)Cc2ccccc2)CC12CCOCC2` (stereo unspecified) | 0.9717 | -10.95 | 9.51 |
| `O=C(Nc1nc(-c2ccccc2)ns1)N1CC[C@H](O)C1` | -5.963 | -4.295 | 14.08 |
| `CCn1nc(C)c2nc(C(C)C)nc(NCCc3ccc(O)cc3)c21` | -11.29 | - | 26.38 |
| `CCc1nccc(CN2CCC(CNC(=O)[C@H]3CC[C@H](C)CC3)C2)n1` (stereo partly specified) | 12.96 | 0.238 | 14.05 |
| `CCN(C)c1ncnc2c1CCN(CC1CCOC1)CC2.O=C(O)C(F)(F)F` (stereo unspecified) | 3.811 | 21.68 | - |
| `C/C=C(\C)CN1C[C@H](NC(=O)CN2CCCC2=O)[C@@H](c2ccc(C)o2)C1` | 4.436 | -14.68 | -0.2618 |
| `Cc1cc(C(=O)N2CCN(C)CC2)nn1CC(=O)NCc1cccs1` | - | - | 16.55 |
| `COc1cccc2c1OCC(C(=O)NC1CCN(S(C)(=O)=O)CC1)C2` (stereo unspecified) | -3.329 | -4.319 | 7.407 |
| `N#Cc1cccc(CN2C[C@H](OCC3CCOCC3)[C@H]3COC[C@H]32)c1` | - | - | 14.81 |
| `COCC1(Nc2nc(C)nc3c2cnn3C)CCCC1` | -20.24 | -19.45 | 5.573 |
| `COc1ccccc1CN1C(=O)O[C@@H]2CN(Cc3cccc(C)n3)C[C@@H]21` | - | - | 4.416 |
| `COc1cc(OC)cc(N2CCC(NCc3occc3C)C2=O)c1` (stereo unspecified) | -16.27 | 15.17 | 7.023 |
| `NS(=O)(=O)CC1CCCN1CCOc1ccccc1F` (stereo unspecified) | 8.159 | 19.24 | 19.83 |
| `CCc1nc(CCNC(=O)NC2CCSCC2)cs1` | -8.694 | 6.071 | -1.928 |
| `Cc1ccc(Sc2ccc(N3CCC(C(=O)O)CC3)nn2)cc1` | -5.034 | -5.937 | 6.832 |
| `O=C(Cc1ccsc1)N1CCC(c2noc(-c3cccnc3)n2)CC1` | -9.921 | -30.13 | 14.15 |
| `Cc1noc(C)c1CN1C[C@@H]2COC[C@H](C(=O)N3CCCCO3)[C@@H]2C1` | - | - | 18.47 |
| `Cc1ccc(CN2CC[C@@H]3OCCN(Cc4ccncc4)[C@H]3CC2)s1` | - | - | 7.65 |
| `CCCc1n[nH]c(C2CN(C(=O)c3n[nH]c4ccccc34)CCO2)n1` (stereo unspecified) | -12.4 | -20.12 | 13.13 |
| `[H][C@]12CC[C@]([H])(CN(C(C)=O)C1)N(C(=O)CCc1n[nH]c3c1CCCC3)C2` | -1.596 | -15.54 | - |
| `CC(C)COCC1CN(Cc2ccc3c(c2)OCO3)Cc2ncn(C)c21` (stereo unspecified) | - | - | 2.857 |
| `O=C(NCCO)NCC(c1ccccc1)N1CCc2sccc2C1` (stereo unspecified) | -1.535 | 16.73 | 6.774 |
| `Cc1nc(C)n(C2CCCN(C(=O)Cc3cn4ccccc4n3)C2)n1` (stereo unspecified) | -26.35 | - | 16.94 |
| `CC(C)Nc1nc(O)cc(C2CC(=O)N(C3CCCCC3)C2)n1` (stereo unspecified) | -5.622 | 20.94 | 17.45 |
| `COc1cccc(CN(C)Cc2ccc(C#N)cc2)c1OC` | 9.345 | 18.16 | 6.667 |
| `Cc1nn(C)c2cnn(CC(=O)NCc3ccc4c(c3)OCO4)c12` | 9.123 | - | -42.96 |
| `Fc1cccc(-c2nnn3c2COC(CNCc2nccs2)C3)c1.O=C(O)C(F)(F)F` (stereo unspecified) | -9.192 | -28.9 | - |
| `CCc1nnc2n1CCN(C(=O)CCOc1cc(C)ccc1C)C2` | -4.292 | 30.9 | 14.73 |
| `COc1ccc(CN2CCN(C(C)=O)CC3(CC(=O)N(C)C3)C2)cc1` (stereo unspecified) | - | - | 18.52 |
| `O=C(Nc1cccnc1)c1ccc(-n2cncn2)nn1` | -8.196 | -45.02 | 5.755 |
| `Cn1nc2c(cc1=O)CN(CC(=O)Nc1nncs1)CC2` | 10.14 | -10.99 | 9.363 |
| `[H][C@@]12C[C@H](c3nc(C)no3)CN(Cc3ccncc3)[C@]1([H])CCO2` | -5.239 | -43.7 | - |
| `COCc1nc(CN2CC(=O)N(C)c3ccccc3C2=O)no1` | -0.9314 | - | 12.45 |
| `CC(C)CC(NCc1cscn1)c1ccccn1` (stereo unspecified) | 27.38 | 3.278 | 4.505 |
| `Cc1noc(C)c1C(=O)NCC(C)N1CCc2ccccc21` (stereo unspecified) | -30.85 | - | 24.59 |
| `COCCN1CCC(CN(CC2CCCO2)C(=O)Cn2cccn2)CC1` (stereo unspecified) | 8.214 | 36.63 | 13.52 |
| `Cc1oc(-c2ccsc2)nc1CNCCn1cccn1` | -1.913 | 49.24 | 13.86 |
| `Cc1ncc2c(n1)CCN(C(C(N)=O)c1ccccc1)C2` (stereo unspecified) | -2.292 | -38.91 | 7.796 |
| `Cn1ncc2c(N3CCN(CCC(N)=O)CC3)nc(C3CCCC3)nc21` | -7.88 | 12.85 | 4.839 |
| `N#Cc1cccc(NC2CC(=O)N(C3Cc4ccccc4C3)C2)n1` (stereo unspecified) | 8.725 | 53.28 | 7.829 |
| `O=C(c1ccccn1)N1C[C@H]2CCC[C@@]2(COCC2CCOCC2)C1` | - | - | 6 |
| `Cc1cc(OCC(=O)NC(C)c2ccc(N3CCOCC3)cc2)no1` (stereo unspecified) | -7.099 | 4.093 | 6.299 |
| `CCC(CO)NC(=O)Nc1cc(F)ccc1Br` (stereo unspecified) | 3.496 | - | 13.92 |

For reference, 6 entries once more:

| compound | Mtb heat-shock | Mtb growth Cornell | LdMetRS |
|---|---|---|---|
| `Cl.O=C(NCC1CCC2(CCNCC2)CO1)c1cnccn1` (stereo unspecified) | -23.78 | -6.745 | - |
| `COCC1CCN(C(=O)c2cccc(S(=O)(=O)NCC3(C)COC3)c2)C1` (stereo unspecified) | -13.86 | 14.69 | 16.73 |
| `Cc1noc(C)c1CN1C[C@@H]2COC[C@H](C(=O)N3CCCCO3)[C@@H]2C1` | - | - | 18.47 |
| `COCCN1CCC(CN(CC2CCCO2)C(=O)Cn2cccn2)CC1` (stereo unspecified) | 8.214 | 36.63 | 13.52 |
| `N#Cc1cccc(NC2CC(=O)N(C3Cc4ccccc4C3)C2)n1` (stereo unspecified) | 8.725 | 53.28 | 7.829 |
| `Cc1ccc(Sc2ccc(N3CCC(C(=O)O)CC3)nn2)cc1` | -5.034 | -5.937 | 6.832 |

Data taken from ChEMBL document CHEMBL3988442, “University of Dundee, Small-Polar-MMV Screening Library” (2021).